Data as given in article PMC7819943, “Rice protein-binding microarrays: a tool to detect cis-acting elements near promoter regions in rice”.
This is one part of the list.

Amino acid sequences for entries named in this document (tags omitted).
UniProt Q0JBA9, entry or part of it: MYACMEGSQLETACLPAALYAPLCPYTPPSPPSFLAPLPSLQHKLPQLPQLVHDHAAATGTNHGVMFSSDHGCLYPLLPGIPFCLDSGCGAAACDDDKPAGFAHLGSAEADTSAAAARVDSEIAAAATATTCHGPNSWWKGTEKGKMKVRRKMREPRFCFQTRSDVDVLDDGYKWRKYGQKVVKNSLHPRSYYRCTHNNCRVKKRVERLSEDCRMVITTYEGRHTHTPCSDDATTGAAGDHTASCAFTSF

The sequences below were run against OsWRKY34 (Oryza sativa, UniProt Q0JBA9 1-250) (assay: protein-binding microarray (RPBM); PBS, 2% BSA, 51.3 ng/ul salmon testes DNA, 50 uM zinc acetate, 200 nM TF, 25 C, 1 h; high values mean tight binding). Conditions: protein: recombinant; tags: N-terminal polyhistidine and DsRed monomer fusion (pET32a); label: CyDye5-dUTP incorporated in the synthesized complementary strand; 3' TTTTT single-stranded linker to array surface; dsDNA, one strand shown.
In short: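 Ni–NTA purification followed expression in E. coli BL21-CodonPlus of transcription factors fused N-terminally to a polyhistidine tag and DsRed. At 200 nM in PBS with 2% BSA, salmon testes DNA and 50 µM zinc acetate, the protein was incubated for 1 h at 25 °C with a custom Agilent array that had been primer-extended with Cy5-dUTP and blocked with 2% BSA. After washing, the array was read on an Axon 4000B scanner. The binding signal is per-feature fluorescence intensity in arbitrary units.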

Sequence | binding signal
TCGTGCCGCATACTCTCGCCTGCTACTCCTCGCGCCCAAGCGGAGTCACCTAGTGCAG | 8220 fluorescence intensity (a.u.)
CTCCAAATCTCATGTGCTTGTGTGTTTTTACTTTTTAGAGCGGAGTCACCTAGTGCAG | 8330 fluorescence intensity (a.u.)
TCTCCCGCTTCCTTCTCCGCTTCCGCCCGCATCTCTCTCCCGGAGTCACCTAGTGCAG | 12600 fluorescence intensity (a.u.)
TATTCCCTTACTAGATCTTCTATATATCTTAATTAACGTTCGGAGTCACCTAGTGCAG | 8070 fluorescence intensity (a.u.)
GACTGAAATGCTACTCAAATCTCCGTTTCCTCGTCAACTCCGGAGTCACCTAGTGCAG | 10100 fluorescence intensity (a.u.)
AACTTTTTTTTTGTTGGTTGTTGGGATGAACCTTTTCTTTCGGAGTCACCTAGTGCAG | 9500 fluorescence intensity (a.u.)
GTCTCCGCTGTCTCGCACAGACTTCTTTCTCTCTACTCTTCGGAGTCACCTAGTGCAG | 12500 fluorescence intensity (a.u.)
CTATCTCTCTCATCTGATTCCTACGTTTTTCCTGCGCTCCCGGAGTCACCTAGTGCAG | 8330 fluorescence intensity (a.u.)
GTTTTGGATGTGACGTGATGTGATGAAAAGTTGGAAGTTTCGGAGTCACCTAGTGCAG | 8400 fluorescence intensity (a.u.)
ACAGCTTCCATATGTCCGCTTCAGCTTTCTCTCCATACTACGGAGTCACCTAGTGCAG | 10600 fluorescence intensity (a.u.)
TTTTAAGTATAATTTCTCTATAATTTGACAATGTGGTGCTCGGAGTCACCTAGTGCAG | 8550 fluorescence intensity (a.u.)
CTCTCTCCTCTCCGCCTCGCTTCGCCGTCTCTTTTCCTTTCGGAGTCACCTAGTGCAG | 11000 fluorescence intensity (a.u.)
CCAAACCCTAGCCGCCTCTCGTTTCTTCTCGTCCTCTCCACGGAGTCACCTAGTGCAG | 12000 fluorescence intensity (a.u.)
CCTTTAGCCACTGCCACAAGCACTACCGGCACCACCATAGCGGAGTCACCTAGTGCAG | 8260 fluorescence intensity (a.u.)
CATCCAATCTGCATGCCGGTTTTTGCATCTTTTGTATGGACGGAGTCACCTAGTGCAG | 8590 fluorescence intensity (a.u.)
GCCACACACTTCTTCCACACTTCACGCACCTAGGGTTTCGCGGAGTCACCTAGTGCAG | 8280 fluorescence intensity (a.u.)
CCTCCTGGCCTCAAACTAACCTGCATCTTCGTCGACGCGCCGGAGTCACCTAGTGCAG | 9370 fluorescence intensity (a.u.)
TTTTGAGTGCTTTTATTTCTTTATTTCTTTATTTCTTTATCGGAGTCACCTAGTGCAG | 9320 fluorescence intensity (a.u.)
GTTGTTTTTTTTGGCCTTTGTTTCCACTGCTTCCCGAGTTCGGAGTCACCTAGTGCAG | 10200 fluorescence intensity (a.u.)
GCCACTCTTCACCCACCATCCCAGTGCCGATCCAACCGAGCGGAGTCACCTAGTGCAG | 8340 fluorescence intensity (a.u.)
GATACCACCCAAAACCGACCCTTACAACCGACATAAAACCCGGAGTCACCTAGTGCAG | 8410 fluorescence intensity (a.u.)

Sequence | binding signal
TCATCTACCTTGTCCACTCCTCTGCACCGGGCGCCGCGCCCGGAGTCACCTAGTGCAG | 9810 fluorescence intensity (a.u.)
AAAGTTCTCTCTTTGCCCTTTTCCTTTTAGCAATAGCTTTCGGAGTCACCTAGTGCAG | 8530 fluorescence intensity (a.u.)
CCCCTTGACACTGCCTTTGATGCTCGGCTCTAGCGGTCTTCGGAGTCACCTAGTGCAG | 8370 fluorescence intensity (a.u.)
ATAATCCTTGTCTTATGTTTGCTTGATGTCGTACTACGTACGGAGTCACCTAGTGCAG | 9970 fluorescence intensity (a.u.)
ATATTTGTGTAACCGCAATGTACGCTACTTGCAATCTACTCGGAGTCACCTAGTGCAG | 8630 fluorescence intensity (a.u.)
ATATTTGGTTTTTTTTCGTACTTTTTTTCGCCCGGTTTTTCGGAGTCACCTAGTGCAG | 20800 fluorescence intensity (a.u.)
ACTGTTGGTACTTCTTTGGAAAATATGCTGTTGAACTTGTCGGAGTCACCTAGTGCAG | 8970 fluorescence intensity (a.u.)
CCCAACCATCAGCAACAATTGCTTCGGCCCAACAACATTCCGGAGTCACCTAGTGCAG | 9460 fluorescence intensity (a.u.)
ATCGCTCCACCCACCGCCCGCAATCGCTCCGTCCACCGCCCGGAGTCACCTAGTGCAG | 8470 fluorescence intensity (a.u.)
GCAATGATGTGGACTTGTTGAGCCGCCGGCGCCAACATTTCGGAGTCACCTAGTGCAG | 9010 fluorescence intensity (a.u.)
TCCACCTTTTTACATACTTATCTGTCTTCGTCAGTATTCACGGAGTCACCTAGTGCAG | 12000 fluorescence intensity (a.u.)
GCGGCGCGGCGGGGAGGAGGGAGGGGTGGCGTTGAGGTGGCGGAGTCACCTAGTGCAG | 19300 fluorescence intensity (a.u.)
TTATAACATGTTTTGACTTTGATTAAAGTCAAACTACTTCCGGAGTCACCTAGTGCAG | 14100 fluorescence intensity (a.u.)
CTAACACATTCATCACATGATTAAAATTTTATTATTTATACGGAGTCACCTAGTGCAG | 8510 fluorescence intensity (a.u.)
CTCCCATGCAAACTCTACCTATCTCTGTACCTTCACGCATCGGAGTCACCTAGTGCAG | 8870 fluorescence intensity (a.u.)
CCGCCGCCGCCGCCGCCGCCGCCTCCGATGTCCTCGCCGGCGGAGTCACCTAGTGCAG | 10800 fluorescence intensity (a.u.)
TTATACCTTTTTCCTCAACGATTCCACAATCACATTTGCCCGGAGTCACCTAGTGCAG | 9710 fluorescence intensity (a.u.)
GGGCCTTGGGCGGGTTGGGCTCGAGCGAAGACGTTCCCTCCGGAGTCACCTAGTGCAG | 10600 fluorescence intensity (a.u.)
CACGGGCCGCCCGTTTCGTCGCGATCACCACCACCAGCATCGGAGTCACCTAGTGCAG | 10800 fluorescence intensity (a.u.)
AACTCTTCTTGTCTCTTCACCTCGCCACCGGGGCCGCCATCGGAGTCACCTAGTGCAG | 9390 fluorescence intensity (a.u.)
GTCCTTTCAGTGTTGCGCTTTTGCTTATTGTAGTTATTGGCGGAGTCACCTAGTGCAG | 16300 fluorescence intensity (a.u.)
